# Data: patent US6358921B1, “Antimicrobial peptide compositions and method” (priority 1996, dated 2002)
# Legend:
# Assay type in all cases: cell-based
# Settings in all cases: hemolytic activity/antibiotic activity
# [1] = test system: gram negative microorganisms
# Text: (§1) The following bacterial strains were utilized: Escherichia coli UB1005 (wt) and its antibiotic supersusceptible derivative DC2 (Clark, 1984); Excherichia coli SC9251 and its polymixin B rasistant mutant pmrA SC9252 (Peterson, et al., 1987) Pseudomonas aeruginosa H187 (wt) (Angus, et al., 1987) and its antibiotic-sensitive derivative H188 (Zimmerman, W, Antimicrob. Agents Chemother. 18: 94-100, 1980); methicillin sensitive Staphylococcus aureus K147 (Kreiswirth, et al., 1983); Staphylococcus aureus SAP0017, a methicillin resistant clinical isolate from Dr. A. Chow (University of British Columia); Bacillus subtilis, an environmental wt lab strain. Enterococcus faecalis are ATCC 29212 cells and Staphylococcus epidermidis was a clinical isolate from Dr. D. Speert (University of British Columbia). Antifungal activity was tested using a clinical lab isolate of Candida albicans. Salmonella typhinurium C57 and C610 (Fields, P.I., et al., Science 243: 1059-1062 (1989) Corynebacterium xerosis was an environmental isolate (University of British Columbia).
# (§2) It is now apparent that agar-based assays severely underestimate antifungal activity as well as activity against gram negative microorganisms (Kondejewski, et al., 1996). Consequently, in the studies reported herein, a liquid-broth method was used to measure the antibiotic properties of the peptides. […] Briefly, cells were grown overnight at 37° C. in LB and diluted in the same medium. Serial dilutions of antibiotics were added to the microtitre plates in a volume of 100 μL followed by 10 μL of bacteria to give a final inoculum of 5×10^5 CFU/mL. Plates were incubated at 37° C. overnight and MICs determined as the lowest antibiotic concentration that inhibited growth.
# (§3) The results from antimicrobial and hemolytic assays are combined to provide a “Therapeutic Index” (TI) for each peptide with respect to individual microorganisms. As reported herein, the TI is calculated as the hemolytic activity divided by the antimicrobial activity. The TI thus is a measure of specificity of the particular peptide for microbial membranes as opposed to human blood cell membranes. In the present studies, antimicrobial activities are reported as minimum inhibitory concentrations (MIC)—the lowest concentration of peptide (μg/ml) found to inhibit growth of the particular microbe. Hemolytic activity is reported as the concentration of peptide that effected complete lysis of blood cells after four hours. Thus, in the context of the present invention high TI values indicate microbial specificity and relative lack of toxicity.
# [2] = test system: yeast
# Text: as §1, §2, §3
# [3] = test system: gram positive microorganisms
# Text: as §1, §2, §3
SMILES,"Therapeutic index, gram-negative [1]","Therapeutic index, yeast [2]","Therapeutic index, gram-positive [3]"
"CC(C)C[C@@H]1NC(=O)[C@H](CCCN)NC(=O)[C@H](C(C)C)NC(=O)[C@@H]2CCCN2C(=O)[C@@H](Cc2ccccc2)NC(=O)[C@H](CC(C)C)NC(=O)[C@H](CCCN)NC(=O)[C@H](C(C)C)NC(=O)[C@H](CCCN)NC(=O)[C@@H]2CCCN2C(=O)[C@@H](Cc2ccccc2)NC(=O)[C@H](CCCN)NC1=O [GS12FO, FPVOLOFPOVOL] (cyclo(L[Orn][dF]P[Orn]V[Orn]L[dF]PV[Orn]))",10,10,1.3
"CC(C)C[C@@H]1NC(=O)[C@H](CCCN)NC(=O)[C@H](CC(C)C)NC(=O)[C@@H]2CCCN2C(=O)[C@@H](Cc2ccccc2)NC(=O)[C@H](CC(C)C)NC(=O)[C@H](CCCN)NC(=O)[C@H](CC(C)C)NC(=O)[C@H](CCCN)NC(=O)[C@@H]2CCCN2C(=O)[C@@H](Cc2ccccc2)NC(=O)[C@H](CCCN)NC1=O [GS12FO/LL, FPLOLOFPOLOL] (cyclo(L[Orn]L[Orn][dF]P[Orn]L[Orn]L[dF]P))",9.4,11,4.0

# Where a SMILES comes first, the peptide text is derived from it. [ ]: non-standard residue; d: D form. Orn = NCCC[C@H](N)C(=O)O
